Assay results reported in article PMC7730438 (Scientific Reports, 2020).
Starred links: 1 amine or outer side, 2 acyl side, 3 side chain; linkers in the order of their positions; H or OH if unused. Positions of bridges follow the written chain, without caps; N, C: chain ends. Non-standard residues stand in square brackets, D forms with d. Phe(4-F) = N[C@@H](Cc1ccc(F)cc1)C(=O)O; X1 = CCCCCCC[C@H](N[*:1])C(=O)[*:2]; Nle = CCCC[C@H](N)C(=O)O; X2 = C(C[*:1])C[*:2]; βAla = NCCC(=O)O

Assay: peptide made by a vendor (Fmoc solid-phase peptide synthesis; HOAt/EDC (main-chain cyclisation))
Settings: cyclisation step, analytical RP-HPLC

For “cyclo([βAla]P[Nle]C[X1]S[Phe(4-F)]DPW[dC]) (linker 4-11 via X2; SMILES CCCCCCC[C@@H]1NC(=O)[C@@H]2CSCCCSC[C@@H](NC(=O)[C@H](Cc3c[nH]c4ccccc34)NC(=O)[C@@H]3CCCN3C(=O)[C@H](CC(=O)O)NC(=O)[C@H](Cc3ccc(F)cc3)NC(=O)[C@H](CO)NC1=O)C(=O)NCCC(=O)N1CCC[C@H]1C(=O)N[C@@H](CCCC)C(=O)N2)”, the “final HPLC purity” value was 95.32%.

With “c(βAla-Pro-Nle-Cys-Anon-Ser-4fF-Asp-Pro-Trp-^DCys)” the “final HPLC purity” value was 95.54%.
